According to doi:10.1101/2020.09.23.309518:
Read-outs that look alike come from different tables or passages of the source. No constants are given. Whether binding was seen depends on the method and setting. For some of these results: Binding seen in cells or lysates may run through a third protein. Some binding calls cover weakened binding; strength is not graded here. One block for each substance: values may come before it.

Sequences of proteins named here, by UniProt entry; tags and fusion partners are left off. A change or cut given only in a name is not applied to a line headed by its entry. A line that says so, or that is headed by a name, gives the form on record, which may keep a tag or linker. Residues count along the entry.
UniProt P31749: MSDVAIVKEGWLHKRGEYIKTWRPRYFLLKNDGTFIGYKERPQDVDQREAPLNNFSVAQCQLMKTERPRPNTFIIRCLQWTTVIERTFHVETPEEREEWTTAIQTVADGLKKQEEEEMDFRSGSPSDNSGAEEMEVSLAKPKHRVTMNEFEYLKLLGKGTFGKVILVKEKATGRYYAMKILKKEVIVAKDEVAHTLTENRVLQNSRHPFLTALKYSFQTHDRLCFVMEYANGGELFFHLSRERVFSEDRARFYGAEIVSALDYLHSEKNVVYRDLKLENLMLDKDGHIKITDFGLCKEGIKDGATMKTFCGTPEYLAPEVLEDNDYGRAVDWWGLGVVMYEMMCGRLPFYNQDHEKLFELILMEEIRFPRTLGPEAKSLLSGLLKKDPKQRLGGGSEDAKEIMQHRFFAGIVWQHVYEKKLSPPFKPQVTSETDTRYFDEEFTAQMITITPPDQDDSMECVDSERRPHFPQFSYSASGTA
UniProt Q16659: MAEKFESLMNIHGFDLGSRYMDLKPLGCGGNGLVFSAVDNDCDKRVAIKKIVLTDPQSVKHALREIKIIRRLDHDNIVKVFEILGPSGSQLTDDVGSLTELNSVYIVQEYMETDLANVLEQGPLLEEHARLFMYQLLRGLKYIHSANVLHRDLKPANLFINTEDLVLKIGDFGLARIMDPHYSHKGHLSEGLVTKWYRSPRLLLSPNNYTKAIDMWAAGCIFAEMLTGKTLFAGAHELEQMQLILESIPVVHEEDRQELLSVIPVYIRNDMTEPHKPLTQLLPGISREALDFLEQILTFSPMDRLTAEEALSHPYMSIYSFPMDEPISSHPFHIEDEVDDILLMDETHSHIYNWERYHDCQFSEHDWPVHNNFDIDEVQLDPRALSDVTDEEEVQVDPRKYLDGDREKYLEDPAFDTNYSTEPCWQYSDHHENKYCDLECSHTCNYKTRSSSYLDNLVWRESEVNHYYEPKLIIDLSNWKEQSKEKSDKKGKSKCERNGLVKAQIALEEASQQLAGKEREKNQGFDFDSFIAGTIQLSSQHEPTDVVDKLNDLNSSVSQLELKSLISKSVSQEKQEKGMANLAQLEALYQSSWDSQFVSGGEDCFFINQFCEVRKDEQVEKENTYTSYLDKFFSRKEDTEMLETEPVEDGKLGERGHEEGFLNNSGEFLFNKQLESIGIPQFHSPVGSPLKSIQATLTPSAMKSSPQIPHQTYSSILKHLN
MAPK6^1-480: residues 1-480 of Q16659
MAPK6^1-439: residues 1-439 of Q16659
MAPK6^1-408: residues 1-408 of Q16659
MAPK6^1-389: residues 1-389 of Q16659
MAPK6^1-384: residues 1-384 of Q16659
MAPK6^1-379: residues 1-379 of Q16659
MAPK6^1-373: residues 1-373 of Q16659
MAPK6^1-362: residues 1-362 of Q16659
kinase domain of MAPK6 (the 1-316 aa fragment): residues 1-316 of Q16659
MAPK6 fragment containing both C34 and C-terminal tail: residues 317-721 of Q16659
C34 region of MAPK6 (the 317-480 aa fragment): residues 317-480 of Q16659
C-terminal tail of MAPK6: residues 481-721 of Q16659
FLAG-tagged MAPK6 mutant with EEDRQE mutated to AAARAA (Q16659, form named): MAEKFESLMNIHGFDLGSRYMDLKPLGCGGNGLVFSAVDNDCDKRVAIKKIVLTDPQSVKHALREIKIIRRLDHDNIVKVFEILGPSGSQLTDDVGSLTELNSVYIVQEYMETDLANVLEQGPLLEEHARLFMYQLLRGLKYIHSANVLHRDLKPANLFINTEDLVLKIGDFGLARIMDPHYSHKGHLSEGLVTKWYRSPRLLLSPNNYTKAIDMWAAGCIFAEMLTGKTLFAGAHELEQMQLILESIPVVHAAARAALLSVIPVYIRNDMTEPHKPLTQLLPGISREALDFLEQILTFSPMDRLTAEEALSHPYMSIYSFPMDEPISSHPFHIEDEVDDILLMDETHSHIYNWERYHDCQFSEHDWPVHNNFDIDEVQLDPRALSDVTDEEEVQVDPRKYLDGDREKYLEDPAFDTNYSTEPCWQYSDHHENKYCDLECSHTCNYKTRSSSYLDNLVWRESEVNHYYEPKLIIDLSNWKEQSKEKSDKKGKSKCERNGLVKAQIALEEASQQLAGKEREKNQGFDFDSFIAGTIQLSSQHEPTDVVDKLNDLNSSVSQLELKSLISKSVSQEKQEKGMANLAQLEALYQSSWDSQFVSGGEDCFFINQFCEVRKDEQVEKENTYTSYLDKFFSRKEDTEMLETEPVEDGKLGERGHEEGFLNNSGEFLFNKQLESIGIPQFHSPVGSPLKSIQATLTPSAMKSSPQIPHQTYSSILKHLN
MAPK6^1-384 with DIDE (374-377) mutated to KIKK (Q16659, form named): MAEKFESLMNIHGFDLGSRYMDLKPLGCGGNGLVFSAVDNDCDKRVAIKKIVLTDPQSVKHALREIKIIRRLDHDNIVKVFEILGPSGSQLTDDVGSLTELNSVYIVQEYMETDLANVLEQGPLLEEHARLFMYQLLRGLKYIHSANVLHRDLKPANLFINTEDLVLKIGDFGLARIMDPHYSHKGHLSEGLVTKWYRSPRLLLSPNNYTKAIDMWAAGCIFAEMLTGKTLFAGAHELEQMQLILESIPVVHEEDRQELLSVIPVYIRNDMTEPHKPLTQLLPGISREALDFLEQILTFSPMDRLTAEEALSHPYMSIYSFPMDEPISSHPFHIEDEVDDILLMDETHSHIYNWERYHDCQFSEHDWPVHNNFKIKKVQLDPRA
full-length MAPK6 with DIDE (374-377) mutated to KIKK (Q16659, form named): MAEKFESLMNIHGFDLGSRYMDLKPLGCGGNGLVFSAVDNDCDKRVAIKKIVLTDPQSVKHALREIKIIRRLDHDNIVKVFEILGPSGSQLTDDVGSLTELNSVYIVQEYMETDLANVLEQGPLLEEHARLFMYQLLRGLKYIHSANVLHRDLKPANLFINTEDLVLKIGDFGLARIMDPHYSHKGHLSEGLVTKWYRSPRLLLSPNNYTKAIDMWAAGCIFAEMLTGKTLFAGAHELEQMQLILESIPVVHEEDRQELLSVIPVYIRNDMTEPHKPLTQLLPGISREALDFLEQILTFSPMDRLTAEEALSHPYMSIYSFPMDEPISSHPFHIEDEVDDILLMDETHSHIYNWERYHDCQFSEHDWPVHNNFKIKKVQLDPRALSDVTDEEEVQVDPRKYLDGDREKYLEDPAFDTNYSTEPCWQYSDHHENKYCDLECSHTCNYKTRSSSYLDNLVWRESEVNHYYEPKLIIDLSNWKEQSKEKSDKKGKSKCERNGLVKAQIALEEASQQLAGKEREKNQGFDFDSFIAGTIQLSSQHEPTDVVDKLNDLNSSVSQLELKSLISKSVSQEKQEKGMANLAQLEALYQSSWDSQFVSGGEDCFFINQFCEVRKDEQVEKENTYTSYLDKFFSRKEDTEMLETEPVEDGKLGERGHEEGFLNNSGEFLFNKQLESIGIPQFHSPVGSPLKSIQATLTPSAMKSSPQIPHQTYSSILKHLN
MAPK6^1-480 mutant with an internal 363-379 deletion (Q16659, form named): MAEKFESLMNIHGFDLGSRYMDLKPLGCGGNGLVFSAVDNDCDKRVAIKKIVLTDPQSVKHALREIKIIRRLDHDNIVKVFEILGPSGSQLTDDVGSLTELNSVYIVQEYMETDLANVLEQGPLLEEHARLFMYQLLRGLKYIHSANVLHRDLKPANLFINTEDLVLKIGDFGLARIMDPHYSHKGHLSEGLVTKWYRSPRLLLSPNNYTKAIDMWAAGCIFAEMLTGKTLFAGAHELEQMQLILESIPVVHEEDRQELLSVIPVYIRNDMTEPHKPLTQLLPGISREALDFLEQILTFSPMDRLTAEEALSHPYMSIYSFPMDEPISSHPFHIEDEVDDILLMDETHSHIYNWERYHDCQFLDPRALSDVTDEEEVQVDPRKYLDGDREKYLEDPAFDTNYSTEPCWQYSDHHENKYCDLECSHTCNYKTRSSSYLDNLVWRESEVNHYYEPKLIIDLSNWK
UniProt Q8IW41: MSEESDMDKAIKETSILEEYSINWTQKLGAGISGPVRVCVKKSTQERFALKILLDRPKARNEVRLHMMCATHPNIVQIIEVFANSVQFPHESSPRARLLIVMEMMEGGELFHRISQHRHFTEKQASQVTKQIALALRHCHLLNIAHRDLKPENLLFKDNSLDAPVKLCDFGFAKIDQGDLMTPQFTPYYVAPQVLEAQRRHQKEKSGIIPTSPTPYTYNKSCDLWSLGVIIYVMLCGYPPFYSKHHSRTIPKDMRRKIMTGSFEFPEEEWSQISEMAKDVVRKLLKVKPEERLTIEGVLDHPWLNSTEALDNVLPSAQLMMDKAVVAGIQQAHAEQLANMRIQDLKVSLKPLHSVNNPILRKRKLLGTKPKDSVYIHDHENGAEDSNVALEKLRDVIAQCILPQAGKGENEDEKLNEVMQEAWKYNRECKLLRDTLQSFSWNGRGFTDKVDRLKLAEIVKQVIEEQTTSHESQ

Experiments:
FLAG-tagged AKT1 [1] = target: FLAG-tagged AKT1 (UniProt P31749); test: co-IP
FLAG-tagged AKT1 [2] = target: FLAG-tagged AKT1 (UniProt P31749); test: co-IP; remark: listed apart in the source
[3] = target: C-terminal tail of MAPK6 (human) (UniProt Q16659); test: co-IP
[4] = target: C34 region of MAPK6 (the 317-480 aa fragment) (human) (UniProt Q16659); test: co-IP
[5] = target: FLAG-tagged MAPK6 (wild type, full length) (human) (UniProt Q16659); test: co-IP
[6] = target: FLAG-tagged MAPK6 mutant with EEDRQE mutated to AAARAA (human) (UniProt Q16659); test: co-IP
[7] = target: FLAG-tagged S189A mutant MAPK6 (human) (UniProt Q16659); test: co-IP
[8] = target: MAPK6 fragment containing both C34 and C-terminal tail (human) (UniProt Q16659); test: co-IP
MAPK6^1-362 (human) = MAPK6^1-362 (human) (UniProt Q16659); test: co-IP
MAPK6^1-373 (human) = MAPK6^1-373 (human) (UniProt Q16659); test: co-IP
MAPK6^1-379 (human) = MAPK6^1-379 (human) (UniProt Q16659); test: co-IP
MAPK6^1-384 (human) = MAPK6^1-384 (human) (UniProt Q16659); test: co-IP
[9] = target: MAPK6^1-384 with DIDE (374-377) mutated to KIKK (human) (UniProt Q16659); test: co-IP
MAPK6^1-389 (human) = MAPK6^1-389 (human) (UniProt Q16659); test: co-IP
MAPK6^1-408 (human) = MAPK6^1-408 (human) (UniProt Q16659); test: co-IP
MAPK6^1-439 (human) = MAPK6^1-439 (human) (UniProt Q16659); test: co-IP
MAPK6^1-480 (human) = MAPK6^1-480 (human) (UniProt Q16659); test: co-IP
[10] = target: full-length MAPK6 with DIDE (374-377) mutated to KIKK (human) (UniProt Q16659); test: co-IP
[11] = target: kinase domain of MAPK6 (the 1-316 aa fragment) (human) (UniProt Q16659); test: co-IP
[12] = target: MAPK6^1-480 mutant with an internal 363-379 deletion (human) (UniProt Q16659); test: co-IP
[13] = target: GST-MAPK6 fusion protein (human) (UniProt Q16659); test: pull-down

binding (FLAG-tagged AKT1 [1]): binds | binding (FLAG-tagged AKT1 [2]): binds
Substance: HA-tagged MAPK6 (from UniProt Q16659 1-721)

binding [3]: binds | binding [4]: binds | binding [5]: binds | binding [6]: binds | binding [7]: binds | binding [8]: binds | binding (MAPK6^1-362 (human)): no binding | binding (MAPK6^1-373 (human)): no binding | binding (MAPK6^1-379 (human)): binds | binding (MAPK6^1-384 (human)): binds | binding [9]: no binding | binding (MAPK6^1-389 (human)): binds | binding (MAPK6^1-408 (human)): binds | binding (MAPK6^1-439 (human)): binds | binding (MAPK6^1-480 (human)): binds | binding [10]: binds | binding [11]: no binding
Substance: His-tagged AKT1 (from UniProt P31749 1-480)

binding (MAPK6^1-480 (human)): binds | binding [12]: binds
Substance: MAP kinase-activated protein kinase 5 (from UniProt Q8IW41 1-473)

binding [13]: binds
Substance: commercially available purified AKT1 protein (from UniProt P31749 1-480)
